Assay results as given in patent publication US20170096492A1, “DOSAGE AND ADMINISTRATION OF ANTI-IGF-1R, ANTI-ErbB3 BISPECIFIC ANTIBODIES, USES THEREOF AND METHODS OF TREATMENT [sequence]” (Merrimack Pharmaceuticals, Inc., priority 2014, published 2017).
At least one compound was matched to its structure with a doubt left.

Tests used:
[1] = molecular target: mTOR (Homo sapiens, UniProt P42345); conditions: cited from earlier work
[2] = test system: BxPC-3 (KRas wild-type) pancreatic cancer cells; assay: pAKT western blot, GSK-1120212 and MM-141; format: cell-based, human; conditions: single agent, 24 h; GSK-1120212 250 nM or MM-141 1000 nM
Procedure: Following treatment, cells were harvested in cell lysis buffer and western blotting was performed and quantified for pAKT (Serine 473).

[3] = test system: KP4 (KRas mutant) pancreatic cancer cells; assay: pAKT western blot, GSK-1120212 and MM-141; format: cell-based, human; conditions: single agent, 24 h; GSK-1120212 250 nM or MM-141 1000 nM

SMILES	selectivity for mTOR than PI3Kα, PI3Kβ, PI3Kγ or DNA-PK [1]	pAKT (Serine 473) level [2]	pAKT (Serine 473) level [3]
COc1cccc2cc(-c3nc([C@H]4CC[C@H](C(=O)O)CC4)n4ncnc(N)c34)[nH]c12 [OSI-027]	more than 100 fold		
CC(=O)Nc1cccc(-n2c(=O)n(C3CC3)c(=O)c3c(Nc4ccc(I)cc4F)n(C)c(=O)c(C)c32)c1 [GSK-1120212, Trametinib, reference compound]		Up-regulation of pAKT	Up-regulation of pAKT
